From patent EP4578939A1, “MYC[…]. BASED ON VARIOUS CARBON-NITROGEN METABOLIC […], METHOD FOR ISOLATING SAME, AND USE THEREOF” (Peng, Guanghao, priority 2022, dated 2024)
Where a name gives a salt, the structure may show the parent alone.

Tested on: strain YT
Assay: inhibition of nitrification inhibitors on nitrification activity and growth
Type: cell-based, Mycobacterium sp.
Conditions: inhibitor 5 mM
Protocol: The nitrogen contents of the two nitrogen sources were equal in a modified Stephenson medium with (NH4)2SO4 as a nitrogen source (NH4)2SO4 content was 2.0g/L) and a modified Stephenson medium with L-arginine hydrochloride (C6H14N4O2•HCl) as a nitrogen source (C6H14N4O2•HCl content was 1.6 g/L).
When sodium pyruvate was added as a carbon source in the design of a culture medium, 1.0M sodium pyruvate solution (the concentration was calculated in terms of pyruvic acid) was prepared firstly, the pH was adjusted to the range of 7.0-7.2, and the solution was sterilized separately for later use. Before use, 1ml of 1.0M sodium pyruvate solution was added to about 100ml of modified Stevenson culture medium with (NH4)2SO4 as a nitrogen source or L-arginine hydrochloride (C6H14N4O2•HCl) as a nitrogen source, and the pyruvic acid concentration of the culture system was designed to be 0.01M.
Four kinds of nitrification inhibitors 4-amino-1,2,4-triazole (ATC), dicyandiamide (DCD, C2H4N4), aminoguanidine hydrochloride (CH6N4•HCl), and guanylthiourea (C2H6N4S) were selected. The four nitrification inhibitors were prepared with a concentration of 500mM, respectively, after the solutions were filtered and sterilized, 1ml of the four nitrification inhibitors with a concentration of 500mM was added into the two medium with different nitrogen sources, such that the corresponding concentration of each of the nitrification inhibitors in the systems was 5 mM.
Two mediums with different nitrogen sources were respectively subjected to 5 treatments, namely without addition of an inhibitor, adding ATC, adding DCD, adding aminoguanidine hydrochloride, and adding guanylthiourea as shown in the table below; the YT system without addition of an inhibitor and the system without inoculation of strain YT and only addition of an inhibitor were respectively used as a control group; 1ml of PBS-YT bacterial liquid was inoculated, and 1ml of sterile water was used as a substitute when the inoculation of a bacterial strain was not performed. The total volume of each culture system was equal, it was about 100 ml.
1.5 Culture conditions: the culture was performed in a shaking table with a rotational speed of 180rpm at 28°C.
1.6 Measurement and calculation of indicator: the growth OD600 and pH value of thallus in the culture solution were measured every week, the contents of NH4^+-N, NO2^--N and NOx^--N were measured, the inhibition effect of the nitric oxide synthase (nitrification) activity of different culture systems were calculated and compared.
Nitric oxide synthase (nitrification) inhibition rate (%) = (NO2^--NYT concentration - NO2^--Nculture system added with an inhibitor concentration) ×100/ NO2^--NYT concentration

[1] = L-arginine hydrochloride as nitrogen source, 7 days (Table 13c)
[2] = L-arginine hydrochloride as nitrogen source, 14 days (Table 13c)
[3] = L-arginine hydrochloride as nitrogen source, 20 days
[4] = L-arginine hydrochloride as nitrogen source, 31 days
[5] = ammonium sulfate as nitrogen source, 7 days (Table 13c)
[6] = ammonium sulfate as nitrogen source, 14 days (Table 13c)
[7] = ammonium sulfate as nitrogen source, 20 days
[8] = ammonium sulfate as nitrogen source, 31 days
[9] = L-arginine hydrochloride as nitrogen source, 7 days
[10] = L-arginine hydrochloride as nitrogen source, 14 days
[11] = L-arginine hydrochloride as nitrogen source, 21 days
[12] = L-arginine hydrochloride as nitrogen source, 28 days
[13] = L-arginine hydrochloride as nitrogen source, 35 days
[14] = ammonium sulfate as nitrogen source, 7 days
[15] = ammonium sulfate as nitrogen source, 14 days
[16] = ammonium sulfate as nitrogen source, 21 days
[17] = ammonium sulfate as nitrogen source, 28 days
[18] = ammonium sulfate as nitrogen source, 35 days

**Q.** Which results are given for `Nn1cnnc1` [ATC, 4-amino-1,2,4-triazole]?
**A.** pH [1]: 7.5; pH [2]: 7.7; pH [3]: 8; pH [4]: 7.7; pH [5]: 7.0; pH [6]: 7.0; pH [7]: 7.2; pH [8]: 7.0

**Q.** What does the source list for `N=C(N)NC(N)=S` [Amidinothiourea, guanylthiourea]?
**A.** pH [9]: 7.2; pH [10]: 7.7; pH [11]: 7.7; pH [12]: 7.7; pH [13]: 8.0; pH [14]: 6.5; pH [15]: 7.0; pH [16]: 7.0; pH [17]: 7.0; pH [18]: 7.0

**Q.** `N=C(N)NN` [Aminoguanidine hydrochloride, aminoguanidine hydrochloride] was tested. Which pH [9] did it give?
**A.** 7.5

**Q.** What about the pH [10] of the same compound?
**A.** 7.2

**Q.** And the pH [11]?
**A.** 7.2

**Q.** And the pH [12]?
**A.** 7.5

**Q.** And the pH [13]?
**A.** 7.5

**Q.** And the pH [14]?
**A.** 6.7

**Q.** And the pH [15]?
**A.** 6.7

**Q.** And the pH [16]?
**A.** 6.7

**Q.** What about the pH [17] of the same compound?
**A.** 7.0

**Q.** What about the pH [18] of the same compound?
**A.** 6.7

**Q.** Which pH [1] does the source give for `N#CN=C(N)N` [DCD, dicyandiamide] here?
**A.** 7.5

**Q.** And the pH [2]?
**A.** 7.7

**Q.** What about the pH [3] of the same compound?
**A.** 7.7

**Q.** What about the pH [4] of the same compound?
**A.** 7.5

**Q.** What about the pH [5] of the same compound?
**A.** 7.0

**Q.** And the pH [6]?
**A.** 7.0

**Q.** What about the pH [7] of the same compound?
**A.** 7.2

**Q.** What about the pH [8] of the same compound?
**A.** 7.0
